# Test results as given in PubChem BioAssay AID686999 (Broad Institute, 2013).
# Inconclusive means that the source gave no clear call. Such entries were picked first, then a sample of the others. The source made the active and inactive calls.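 How the source made its calls: active means active in every separate test run, each with half-maximal potency at or under twice its top valid dose; inconclusive means the separate test runs give conflicting calls; inactive means inactive in every test run, including signal rising instead.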
# Experiment: Cryptococcus growth inhibition by alamar blue – cell lysis, cherry-picks, replicate tests, mechanism study for C. neoformans antifungal project, dose response (AID 686999)
# Details: 72 h
Structure (SMILES),"activity change, negative = inhibition (at 38 µM (top of the series))","activity change, negative = inhibition (at 42 µM (top of the series))"
COC(=O)C1=C(C)N(CC(C)C)C(=S)NC1c1ccc(Cl)cc1 (configuration not stated),inconclusive: -14.3%,
COC(=O)C1=C(C)N(CC(C)C)C(=S)NC1c1cccc(F)c1 (configuration not stated),,inactive: 10.4%
